# Patent publication US7608249B2, “Enhanced substrate imaging by reversible binding to a paramagnetic complex” (Bracco Imaging S.p.A., priority 2001, dated 2009)
# Key:
# [1] = NMR T1 relaxation and relaxation enhancement of substrate nuclei; settings: complex 1 mM, Lactate 10 mM; 7.05 T and 39° C.
# From the text: (§1) Quantitatively, the relaxation enhancement, ε, of the substrate nuclei induced by the paramagnetic complex may be expressed in terms of this ratio:
# (§2) in which Ri^s represents the observed relaxation rate of the substrate nucleus of interest without paramagnetic promotion and Ri^s* is the corresponding relaxation rate observed when the paramagnetic chelate is present in solution.
# (§3) The relaxation rate Ri is equal to 1/Ti, wherein i=1 or 2.
# The reversible interaction of lactate at the paramagnetic Gd(III) centre promotes a dramatic reduction of T1 and T2 of its resonances. In fact, in the solution containing GdDO3A 1 mM and Lactate 10 mM, the T1 (at 7.05 T and 39° C.) of the ^1H-methyl resonance passes from 2.9 s to 8.0 ms, whereas in an analogous experiment T1 of the ^13C-methyl resonance passes from 3.5 s to 30.0 ms wherein the relaxation enhancement for ^1H-methyl, ^1Hε is 362.5 while ^13Cε is 116.7.
# [2] = as above; settings: complex 0.9 mM, trifluoro-lactate 10 mM; 312 K
# Procedure: as §1, §2, §3
# At 7.05 T and 312° K, the relaxation time T1 of ^19F resonance of a 10 mM solution of CF3—CH(OH)—COO^− is 4.5 s.
# Upon the addition of GdDO3A 0.9 mM the T1 value becomes 23.0 ms wherein the relaxation enhancement ^19Fε is 195.6.
# [3] = as above; settings: 20 mM inorganic phosphate, 0.2 mM complex; 7.1 T, pH 7.4, 39° C.
# Procedure: as §1, §2, §3
# The T1 of a 20 mM solution of inorganic phosphate at 7.1 T, pH 7.4, and 39° C. is very long (about 10 s), but in the presence of 0.2 mM of GdDO3A it dramatically shortens to 36 ms (^31Pε=277.8). The very short T1 of ^31P-phosphate, with respect ^1H-, ^13C-, and ^19F-lactate, is due to the closer proximity of the ^31P nucleus to the metal centre in the ternary complex.
smiles,measurement,setting,value
O=C([O-])CN1CCNCCN(CC(=O)[O-])CCN(CC(=O)[O-])CC1.[Gd+3] [GdDO3A],T1 of the 1H-methyl resonance,[1],8.0 ms
same,T1 of the 13C-methyl resonance,[1],30.0 ms
same,relaxation enhancement 13Cε,[1],116.7
same,"relaxation enhancement for 1H-methyl, 1Hε",[1],362.5
same,T1 of 19F resonance,[2],23.0 ms
same,relaxation enhancement 19Fε,[2],195.6
same,T1 of 31P,[3],36 ms
same,relaxation enhancement 31Pε,[3],277.8
